# Measurements: doi:10.1101/2020.04.19.049288
# By UniProt entry, the sequences of proteins in these tests, tags left out. Where a name states a change or a piece, a line headed by the entry shows the natural chain unless it says otherwise.
# UniProt Q10M12: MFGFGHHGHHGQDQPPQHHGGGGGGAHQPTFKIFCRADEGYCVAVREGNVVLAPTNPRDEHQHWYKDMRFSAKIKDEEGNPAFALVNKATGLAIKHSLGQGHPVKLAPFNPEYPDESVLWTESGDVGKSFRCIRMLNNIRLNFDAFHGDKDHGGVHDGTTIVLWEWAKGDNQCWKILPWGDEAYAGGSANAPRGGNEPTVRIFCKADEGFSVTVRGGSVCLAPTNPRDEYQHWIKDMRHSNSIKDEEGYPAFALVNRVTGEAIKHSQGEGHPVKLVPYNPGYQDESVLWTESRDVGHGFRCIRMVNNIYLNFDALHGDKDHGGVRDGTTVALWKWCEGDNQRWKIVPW
# UniProt P93438: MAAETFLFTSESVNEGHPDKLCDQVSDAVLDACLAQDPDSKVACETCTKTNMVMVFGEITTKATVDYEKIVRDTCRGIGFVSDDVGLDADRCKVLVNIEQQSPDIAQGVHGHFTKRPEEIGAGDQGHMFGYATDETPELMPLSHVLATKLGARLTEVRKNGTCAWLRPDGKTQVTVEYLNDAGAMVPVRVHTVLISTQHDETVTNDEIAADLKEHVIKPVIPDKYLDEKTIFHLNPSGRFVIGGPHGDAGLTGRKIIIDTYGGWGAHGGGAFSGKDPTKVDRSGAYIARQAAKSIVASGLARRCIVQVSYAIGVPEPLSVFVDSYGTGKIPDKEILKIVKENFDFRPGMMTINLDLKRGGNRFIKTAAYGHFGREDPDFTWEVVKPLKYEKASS
# Results are given in words; binding and its absence hold for the method and conditions named. In cells and extracts the contact can be indirect. Binding can be weak; no strength is given.
# Molecular target: Osr40c1-cVenus (rice) (UniProt Q10M12)
# Assay: split reporter
row,Molecule,binding
1,OsSAM2-nVenus (from UniProt P93438 1-394),binds
2,"OsSAP8-nVenus (protein, UniProt A3BDI8 1-171) MEHKETGCQQPEGPILCINNCGFFGSAATMNMCSKCHKEMIMKQEQAKLAASSIDSIVNGGDSGKEPIIAGHAEVAVAQVEVKTLVAQPAEIAGPSEGVTVNPKGREGPNRCSTCRKRVGLTGFNCRCGNLYCAMHRYSDKHDCQFDYRTAARDAIAKANPVVKAEKLDKI",binds
